Laboratory results published in patent US20240360206A1.
Positions count from the first letter of the chain named. Results are given in words; binding and its absence hold for the method and conditions named. Some results given as binding are weak or reduced against the parent protein; the word gives no strength.

B1: Antibody 1 (antibody, V domains shown)
VH: QSLEESGGRLVTPGTPLTLTCTVSGFSLSSQKVGWVRQAPGKGLEWIGIINNYGSTYYASWAKGRFTISKTSTTVDLRITSLTAEDTATYFCARDPDGSIVFDIWGPGTLVTVSL
VL: AQVLTQTASPVSAAVGGTVTINCQSSQSVVYNNRLSWFQQKPGQPPKLLIYGASTLASGVPSRFKGSGSGTQFTLTISDVQCDDAATYYCLGSYDCSSGDCHAFGGGTEVVVKG
B2: Antibody 4 (antibody, V domains shown)
VH: B1 VH with S29N, S30N, Q31Y, N52Y, G54S, S55Q, R78K, I79L, L82P, A84T
VL: AQVLTQTASPVSAAVGSTVTINCQSSQSVYSNKRLAWFQLKPGQPPKLLIYGASTLASGVPSRFKGSGSGTQFTLTISDVQCDDAATYYCAGGYDCSTGDCWTFGGGTEVVVTG
B3: Antibody 2 (antibody, V domains shown)
VH: QSVEESGGRLVTPGTPLTLTCTVSGFSLSSYAMIWVRQAPGKGLEWIGFISRSGITYYASWAKGRFTISKTSTTVDLKMTSLTTEDTATYFCAREFGAVGSDYYRDAFNLWGPGTLVTVSS
VL: DIVMTQTPASVEAAVGGTVTINCQASESINSWLSWYQQKPGQPPNLLIYRASTLASGVPSRFSGGGSGTEYTLTISDLECADAVTYYCQSYYEEDGIGYAFGGGTEVVVEG
B4: Antibody 5 (antibody, V domains shown)
VH: B3 VH with R9G, T15G, P16T, S30N, I34S, M79I, L82P, T89A, F108L, N109R
VL: DIVMTQTPSSVSAAVGGTVTIKCQASQSIGSNLAWYQQKPGQPPKLLIYGASTLESGVPSRFKGSGSGTEYTLTISDLECADAATYYCQSYYEGSDIGYAFGGGTEVVVEG
B5: Antibody 6 (antibody, V domains shown)
VH: QSLEESGGRLVTPGTPLTLTCTVSGIDLSTHAMTWVRQAPGKGLEWIGVINPSGSAYYATWVNGRFTISKTSTTVDLKITSPTTGDTAKYFCARDYITAGDYYMDAFDPWGPGTLVTVSS
VL: DIVMTQTPASVSAAVGGTVTIKCQASQSISNQLSWYQQKSGQPPKLLIYRASTLASGVPSRFKGSGSGTEFTLTISDLECADAATYYCQQGYNRDNVDNLFGGGTEVVVKG

Biological target: Peptide B
Experiment: indirect ELISA, peptide coated on the plate, HRP goat anti-rabbit antibody, TMB, read at 650 nm; axes without titles, x is a log scale from -8 to -4

binding, binds:
B1, B2, B3, B4, B5
